{"source": "PubChem BioAssay AID1224830 (NIAID, 2016)", "test": "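Genes whose knock-down alters the TNF-alpha reporter response to LPS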 (primary screen)", "system": "human THP-1 monocytic leukaemia cells, TNF dual-luciferase reporter clone, PMA-differentiated to macrophage-like cells", "reagents": "siRNA pool against human genes, 50 nM", "time to read-out": "LPS for 4 h, given about 3 days after siRNA transfection", "conditions": "bacterial LPS (TLR4 ligand), 10 ng/ml", "measurement": "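TNF firefly reporter luminescence divided by renilla, normalised to the plate median, then turned into a robust z-score for each replicate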", "scale": "TNF reporter robust z-score: higher = stronger TNF reporter response to LPS", "call rule": "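a well is active when its z-score exceeds 2.8 or falls below -1.5; control wells carry no call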", "note": "The deposit covers about 18,000 reagents; this is a part drawn at random. About 2,900 of all reagents (16%) were called active. 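Calls are made per well; low scores hint the gene aids the LPS response, high scores that it dampens it.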 Unmarked entries are inactive. Repeated entries: four replicate wells of each siRNA pool."}
{"target": "RPS15", "TNF reporter robust z-score": -0.31}
{"target": "RPS15", "TNF reporter robust z-score": 0.62}
{"target": "RPS15", "TNF reporter robust z-score": 0.8}
{"target": "RPS15", "TNF reporter robust z-score": 0.21}
{"target": "C1orf198", "TNF reporter robust z-score": -0.02}
{"target": "C1orf198", "TNF reporter robust z-score": 0.2}
{"target": "C1orf198", "TNF reporter robust z-score": -0.6}
{"target": "C1orf198", "TNF reporter robust z-score": 0.79}
{"target": "PACSIN2", "TNF reporter robust z-score": -0.55}
{"target": "PACSIN2", "TNF reporter robust z-score": 0.68}
{"target": "PACSIN2", "TNF reporter robust z-score": 0}
{"target": "PACSIN2", "TNF reporter robust z-score": -0.56}
{"target": "ACMSD", "TNF reporter robust z-score": -0.99}
{"target": "ACMSD", "TNF reporter robust z-score": -0.82}
{"target": "ACMSD", "TNF reporter robust z-score": -0.12}
{"target": "ACMSD", "TNF reporter robust z-score": -0.35}
{"target": "EDF1", "TNF reporter robust z-score": 0}
{"target": "EDF1", "TNF reporter robust z-score": 0.56}
{"target": "EDF1", "TNF reporter robust z-score": -0.44}
{"target": "EDF1", "TNF reporter robust z-score": 0.47}
{"target": "SENP8", "TNF reporter robust z-score": -0.2}
{"target": "SENP8", "TNF reporter robust z-score": -0.4}
{"target": "SENP8", "TNF reporter robust z-score": 0.37}
{"target": "SENP8", "TNF reporter robust z-score": 0.11}
{"target": "GPR88", "TNF reporter robust z-score": -0.31}
{"target": "GPR88", "TNF reporter robust z-score": 1.3}
{"target": "GPR88", "TNF reporter robust z-score": -0.37}
{"target": "GPR88", "TNF reporter robust z-score": -0.41}
{"target": "CSH2", "TNF reporter robust z-score": 0.08}
{"target": "CSH2", "TNF reporter robust z-score": 0.8}
{"target": "CSH2", "TNF reporter robust z-score": 0.77}
{"target": "CSH2", "TNF reporter robust z-score": 1.24}
{"target": "LOC90462 (retired record)", "TNF reporter robust z-score": -0.58}
{"target": "LOC90462 (retired record)", "TNF reporter robust z-score": -0.51}
{"target": "LOC90462 (retired record)", "TNF reporter robust z-score": -0.44}
{"target": "LOC90462 (retired record)", "TNF reporter robust z-score": -0.23}
{"target": "OR4N4", "TNF reporter robust z-score": -0.5}
{"target": "OR4N4", "TNF reporter robust z-score": 0.76}
{"target": "OR4N4", "TNF reporter robust z-score": 1}
{"target": "OR4N4", "TNF reporter robust z-score": 0.53}
{"target": "SPACA5", "TNF reporter robust z-score": 0.85}
{"target": "SPACA5", "TNF reporter robust z-score": -0.02}
{"target": "SPACA5", "TNF reporter robust z-score": -0.06}
{"target": "SPACA5", "TNF reporter robust z-score": 0.22}
{"target": "INKA2", "TNF reporter robust z-score": -1.11}
{"target": "INKA2", "TNF reporter robust z-score": -0.64}
{"target": "INKA2", "TNF reporter robust z-score": -0.93}
{"target": "INKA2", "TNF reporter robust z-score": -0.54}
